We go through 5 molecules from US20130052660A1.

Assay [1] deals with LZ2-GFP-CBD fusion protein (leucine zipper 2 linked at the N-terminus of GFP-CBD) (Cellulomonas fimi). In words: FCIB, fluorescence microscopy of E. coli co-expressing both proteins.
The target is the same in assay [2]. Briefly: FCIB, flow cytometry (FL1/FL2) of E. coli co-expressing both proteins.

Substitutions are numbered along the chain they refer to. These are yes or no findings as the source states them, for the method shown. Some entries that bind do so weakly or less than the wild type. Sequences can lack the tags named with a protein.

B1: mLZ1(4/27)-RFP fusion protein (peptide, not shown: large carriers)
chain: EQLKKKLQALEKKLAQLEWKNQALEKELAQ
Turning to B1, the binding result in assay [1] was “binds”.

B2: mLZ1(11)-RFP fusion protein (peptide, not shown: large carriers)
chain: B1 chain with K4E, E11K, E27K
B2: in assay [1], the binding entry was “binds”.

B3: mLZ1(25)-RFP fusion protein (peptide, not shown: large carriers)
chain: B1 chain with K4E, E25K, E27K
Take B3: the binding result in assay [1] is recorded as “binds”.

B4: mLZ1(13/25/27)-RFP fusion protein (peptide, not shown: large carriers)
chain: B1 chain with K4E, K13E, E25K
On to B4, for which, in assay [1], the binding entry is given as “binds”.

B5: LZ1-RFP fusion protein (leucine zipper 1 fused at the N-terminus of RFP) (peptide, not shown: large carriers)
chain: B1 chain with K4E, E27K
Turning to B5, the binding result in assay [1] and in assay [2] was “binds” each time.
